Laboratory results: the supplement of paper PMC12889115
Some of the results follow. These are raw signals, not scaled to a control.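 Primary screen: polymyxin B was added at a level permeabilizing Salmonella outer membranes while sparing inner membranes. DMSO wells, both with and without polymyxin B, established maximum growth. Plate-to-plate variation meant each plate was ranked on its own, and the lowest-OD600 compounds were selected as hits.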

System: Salmonella enterica serovar Typhimurium SL1344
Assay: bacterial growth OD600 after 18 h with compound and polymyxin B; higher = more bacterial growth (less inhibition)
Conditions: 50 µM, Mueller-Hinton broth

CN(Cc1nc(-c2ccc(C(F)(F)F)cc2)no1)CC(O)c1ccccc1 (stereo not given)
bacterial growth OD600 (polymyxin B 1 µg/mL): 0.764

COc1cccc2ccc(CN3CCc4ccc(NC(=O)c5ccncc5)cc4C3)nc12
bacterial growth OD600 (polymyxin B 0.75 µg/mL): 0.782

C=C(C)CN(CC)C(=O)C1CCC(=O)N(C2CCCC2)C1 (stereo not given)
bacterial growth OD600 (polymyxin B 1 µg/mL): 0.958

CCn1cc(CNC(C)c2cnc(N(C)C3CCCCC3)nc2C)cn1 (stereo not given)
bacterial growth OD600 (polymyxin B 0.75 µg/mL): 0.75

CC(C)Cc1cc(CN2CCCC(CO)(CCc3ccccc3)C2)n[nH]1 (stereo not given)
bacterial growth OD600 (polymyxin B 0.75 µg/mL): 0.787

CCO[C@H]1[C@H](NC(=O)c2ccco2)c2ccccc2C12CCN(C(=O)[C@@H]1C[C@@H](C)NC(=S)N1)CC2
bacterial growth OD600 (polymyxin B 0.75 µg/mL): 0.845

Cc1nc(-c2ccncc2)ncc1C(C)NCc1cccc(O)c1 (stereo not given)
bacterial growth OD600 (polymyxin B 0.75 µg/mL): 0.784

CSc1nc(C(=O)N2CCc3ccc(NC(=O)c4ccccn4)cc3C2)cs1
bacterial growth OD600 (polymyxin B 0.75 µg/mL): 0.636

CC1CCN(Cc2nnnn2CC(=O)NC2CCCN(Cc3ccccc3)C2)CC1 (stereo not given)
bacterial growth OD600 (polymyxin B 1 µg/mL): 0.923

C=CCC(=O)NC1CC(=O)N(Cc2ccccc2Cl)C1 (stereo not given)
bacterial growth OD600 (polymyxin B 1 µg/mL): 0.924

O=C(Cc1cccc(C(F)(F)F)c1)N1CCC2(CC1)CC2C(=O)N1CCN(c2ccccn2)CC1 (stereo not given)
bacterial growth OD600 (polymyxin B 0.75 µg/mL): 0.834

COc1ccc(C(=O)N(C)CC2CCCN(CCc3ccccc3OC)C2)cc1F (stereo not given)
bacterial growth OD600 (polymyxin B 1 µg/mL): 0.819

Cc1c[nH]c(CNC(=O)c2cc(CN3CCC(Cc4ccccc4)CC3)on2)n1
bacterial growth OD600 (polymyxin B 1 µg/mL): 0.857

O=C(CCC1(Cc2ccc(Cl)cc2)CCC(=O)N1)NCc1cnn(-c2cccc(F)c2)c1 (stereo not given)
bacterial growth OD600 (polymyxin B 0.75 µg/mL): 0.814

COc1cccc(CC(C2CCN(Cc3cccc(OCCO)c3)CC2)N(C)C(=O)c2ccco2)c1 (stereo not given)
bacterial growth OD600 (polymyxin B 0.75 µg/mL): 0.969

Cn1ccc(CC(=O)N2CCC(C3CCN(Cc4cccnc4)CC3)C2)c1 (stereo not given)
bacterial growth OD600 (polymyxin B 0.75 µg/mL): 0.861

CCN1CCN(C2(C(=O)NCCCC(=O)OC)Cc3ccccc3C2)CC1
bacterial growth OD600 (polymyxin B 0.75 µg/mL): 0.83

Cc1nc(CN2CCN(c3nc4nonc4nc3NC3CCCC3)CC2)cs1
bacterial growth OD600 (polymyxin B 1 µg/mL): 0.87

COc1cc(N2C[C@H]3OC(=O)N(CCCc4ccc(F)cc4)[C@H]3C2)ncn1
bacterial growth OD600 (polymyxin B 1 µg/mL): 0.781

CSCC(=O)NC1CC(=O)N(Cc2cccc(F)c2)C1 (stereo not given)
bacterial growth OD600 (polymyxin B 1 µg/mL): 0.808
